# The other results are listed elsewhere or left out.
# Columns and labels:
# Assay in all cases: glycan array binding signal (z-score within array); higher = stronger binding
# Details in all cases: glycan notation: IUPAC condensed, linker removed
# [1] = molecular target: GlcNAc(b1-3)Gal(b1-4)GlcNAc(b1-3)Gal(b1-4)GlcNAc(b1-2)Man(a1-3)[GlcNAc(b1-3)Gal(b1-4)GlcNAc(b1-3)Gal(b1-4)GlcNAc(b1-2)Man(a1-6)]Man(b1-4)GlcNAc(b1-4)GlcNAc
# In short: (§1)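 The Consortium for Functional Glycomics database supplied 3228 glycan arrays, of which those lacking an available protein sequence were dropped. The binding signal, a within-array Z-score, was averaged across arrays of the same protein sequence and across linkers. Negative scores can be read as non-binding.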
# [2] = molecular target: GlcNAc(b1-3)Gal(b1-4)GlcNAc(b1-3)Gal(b1-4)GlcNAc(b1-2)Man(a1-3)[GlcNAc(b1-3)Gal(b1-4)GlcNAc(b1-3)Gal(b1-4)GlcNAc(b1-2)Man(a1-6)]Man(b1-4)GlcNAc(b1-4)[Fuc(a1-6)]GlcNAc
# In short: as §1
# [3] = molecular target: GlcNAc(b1-3)Gal(b1-4)GlcNAc(b1-3)Gal(b1-4)GlcNAc(b1-2)[GlcNAc(b1-3)Gal(b1-4)GlcNAc(b1-3)Gal(b1-4)GlcNAc(b1-6)]Man(a1-6)[GlcNAc(b1-3)Gal(b1-4)GlcNAc(b1-3)Gal(b1-4)GlcNAc(b1-2)Man(a1-3)]Man(b1-4)GlcNAc(b1-4)[Fuc(a1-6)]GlcNAc
# In short: as §1
# [4] = molecular target: GlcNAc(b1-3)Gal(b1-4)GlcNAc(b1-3)Gal(b1-4)GlcNAc(b1-3)Gal(b1-4)GlcNAc(b1-2)Man(a1-3)[GlcNAc(b1-3)Gal(b1-4)GlcNAc(b1-3)Gal(b1-4)GlcNAc(b1-3)Gal(b1-4)GlcNAc(b1-2)Man(a1-6)]Man(b1-4)GlcNAc(b1-4)GlcNAc
# In short: as §1
# [5] = molecular target: GlcNAc(b1-3)Gal(b1-4)GlcNAc(b1-3)Gal(b1-4)GlcNAc(b1-3)Gal(b1-4)GlcNAc(b1-2)Man(a1-3)[GlcNAc(b1-3)Gal(b1-4)GlcNAc(b1-3)Gal(b1-4)GlcNAc(b1-3)Gal(b1-4)GlcNAc(b1-2)Man(a1-6)]Man(b1-4)GlcNAc(b1-4)[Fuc(a1-6)]GlcNAc
# In short: as §1
# [6] = molecular target: GlcNAc(b1-3)Gal(b1-4)GlcNAc(b1-3)Gal(b1-4)GlcNAc(b1-3)Gal(b1-4)GlcNAc(b1-2)[GlcNAc(b1-3)Gal(b1-4)GlcNAc(b1-3)Gal(b1-4)GlcNAc(b1-3)Gal(b1-4)GlcNAc(b1-6)]Man(a1-6)[GlcNAc(b1-3)Gal(b1-4)GlcNAc(b1-3)Gal(b1-4)GlcNAc(b1-3)Gal(b1-4)GlcNAc(b1-2)Man(a1-3)]Man(b1-4)GlcNAc(b1-4)[Fuc(a1-6)]GlcNAc
# In short: as §1
# [7] = molecular target: GlcNAc(b1-3)Gal(b1-4)GlcNAc(b1-3)Gal(b1-4)GlcNAc(b1-3)Gal(b1-4)GlcNAc(b1-3)Gal(b1-4)GlcNAc(b1-2)Man(a1-3)[GlcNAc(b1-3)Gal(b1-4)GlcNAc(b1-3)Gal(b1-4)GlcNAc(b1-3)Gal(b1-4)GlcNAc(b1-3)Gal(b1-4)GlcNAc(b1-2)Man(a1-6)]Man(b1-4)GlcNAc(b1-4)GlcNAc
# In short: as §1
# [8] = molecular target: GlcNAc(b1-3)Gal(b1-4)GlcNAc(b1-3)Gal(b1-4)GlcNAc(b1-3)Gal(b1-4)GlcNAc(b1-3)Gal(b1-4)GlcNAc(b1-2)Man(a1-3)[GlcNAc(b1-3)Gal(b1-4)GlcNAc(b1-3)Gal(b1-4)GlcNAc(b1-3)Gal(b1-4)GlcNAc(b1-3)Gal(b1-4)GlcNAc(b1-2)Man(a1-6)]Man(b1-4)GlcNAc(b1-4)[Fuc(a1-6)]GlcNAc
# In short: as §1
# [9] = molecular target: GlcNAc(b1-3)Gal(b1-4)GlcNAc(b1-3)Gal(b1-4)GlcNAc(b1-3)Gal(b1-4)GlcNAc(b1-3)Gal(b1-4)GlcNAc(b1-2)[GlcNAc(b1-3)Gal(b1-4)GlcNAc(b1-3)Gal(b1-4)GlcNAc(b1-3)Gal(b1-4)GlcNAc(b1-3)Gal(b1-4)GlcNAc(b1-6)]Man(a1-6)[GlcNAc(b1-3)Gal(b1-4)GlcNAc(b1-3)Gal(b1-4)GlcNAc(b1-3)Gal(b1-4)GlcNAc(b1-3)Gal(b1-4)GlcNAc(b1-2)Man(a1-3)]Man(b1-4)GlcNAc(b1-4)[Fuc(a1-6)]GlcNAc
# In short: as §1
# [10] = molecular target: GlcNAc(b1-3)Gal(b1-4)GlcNAc(b1-3)Gal(b1-4)GlcNAc(b1-3)GalNAc
# In short: as §1
# [11] = molecular target: GlcNAc(b1-3)Gal(b1-4)GlcNAc(b1-3)GalNAc
# In short: as §1
# [12] = molecular target: GlcNAc(b1-3)Gal(b1-4)GlcNAc(b1-3)[GlcNAc(b1-3)Gal(b1-4)GlcNAc(b1-3)]GalNAc
# In short: as §1
# [13] = molecular target: GlcNAc(b1-3)Gal(b1-4)GlcNAc(b1-6)[Gal(b1-3)]GalNAc
# In short: as §1
# [14] = molecular target: GlcNAc(b1-3)Gal(b1-4)GlcNAc(b1-6)[GlcNAc(b1-3)Gal(b1-3)]GalNAc
# In short: as §1
# [15] = molecular target: GlcNAc(b1-3)Gal(b1-4)GlcNAc(b1-6)[GlcNAc(b1-3)]Gal(b1-4)GlcNAc
# In short: as §1
# GlcNAc(b1-3)GalNAc = molecular target: GlcNAc(b1-3)GalNAc
# In short: as §1
# GlcNAc(b1-3)Man = molecular target: GlcNAc(b1-3)Man
# In short: as §1
# [16] = molecular target: GlcNAc(b1-3)[GlcNAc(b1-4)][GlcNAc(b1-6)]GlcNAc
# In short: as §1
# [17] = molecular target: GlcNAc(b1-3)[GlcNAc(b1-6)]Gal(b1-4)GlcNAc
# In short: as §1
# [18] = molecular target: GlcNAc(b1-3)[GlcNAc(b1-6)]GalNAc
# In short: as §1
# [19] = molecular target: GlcNAc(b1-4)Gal(b1-4)GlcNAc
# In short: as §1
# GlcNAc(b1-4)GlcNAc = molecular target: GlcNAc(b1-4)GlcNAc
# In short: as §1
# [20] = molecular target: GlcNAc(b1-4)GlcNAc(b1-4)GlcNAc
# In short: as §1
# [21] = molecular target: GlcNAc(b1-4)GlcNAc(b1-4)GlcNAc(b1-4)GlcNAc(b1-4)GlcNAc
# In short: as §1
# [22] = molecular target: GlcNAc(b1-4)GlcNAc(b1-4)GlcNAc(b1-4)GlcNAc(b1-4)GlcNAc(b1-4)GlcNAc
# In short: as §1
# [23] = molecular target: GlcNAc(b1-4)[GlcNAc(b1-6)]GalNAc
# In short: as §1
# [24] = molecular target: GlcNAc(b1-6)Gal(b1-4)GlcNAc
# In short: as §1
# GlcNAc(b1-6)GalNAc = molecular target: GlcNAc(b1-6)GalNAc
# In short: as §1
# [25] = molecular target: GlcNAc6S(b1-3)Gal(b1-4)GlcNAc
# In short: as §1
# Kdn(a2-3)Gal(b1-3)GalNAc = molecular target: Kdn(a2-3)Gal(b1-3)GalNAc
# In short: as §1
# Kdn(a2-3)Gal(b1-3)GlcNAc = molecular target: Kdn(a2-3)Gal(b1-3)GlcNAc
# In short: as §1
# Kdn(a2-3)Gal(b1-4)Glc = molecular target: Kdn(a2-3)Gal(b1-4)Glc
# In short: as §1
# Kdn(a2-3)Gal(b1-4)GlcNAc = molecular target: Kdn(a2-3)Gal(b1-4)GlcNAc
# In short: as §1
# [26] = molecular target: Kdn(a2-3)Gal(b1-4)[Fuc(a1-3)]GlcNAc
# In short: as §1
# Kdn(a2-6)Gal(b1-4)GlcNAc = molecular target: Kdn(a2-6)Gal(b1-4)GlcNAc
# In short: as §1
# [27] = molecular target: Man(a1-2)Man(a1-2)Man(a1-3)Man
# In short: as §1
# [28] = molecular target: Man(a1-2)Man(a1-2)Man(a1-6)[Man(a1-3)]Man
# In short: as §1
# Man(a1-2)Man(a1-3)Man = molecular target: Man(a1-2)Man(a1-3)Man
# In short: as §1
binder,measurement,setting,value
"AT1G80310(18) (Arabidopsis thaliana), Q0WP36 (protein) METTTTPLLPGDRSRCGWLRRRLRLKNPLSSELSGAVGDLGTFIPIVLTLTLVSNLDLSTTLIFTGFYNIATGLLFDIPMPVQPMKSIAAVAVSESPHLTPSQIAAAGASTAATLLLLGATGAMSFLYNIIPLPVVRGVQLSQGLQFAFTAIKYVRFNYDTATLKPSSSPRIWLGLDGLILALAALLFIILSTGSGNDREAEDGDLAETSSNESQSRRRRLRLLSSIPSALIVFALGLVLCFIRDPSIFKDLKFGPSKFHILRISWDDWKIGFLRAAIPQIPLSVLNSVIAVCKLSNDLFDKELSATTVSISVGVMNLIGCWFGAMPVCHGAGGLAGQYRFGARSGLSVIFLGIGKLIVGLVFGNSFVRILSQFPIGILGVLLLFAGIELAMASKDMNSKEDSFIMLVCAAVSMTGSSAALGFGCGVVLYLLLKLRTLDCSSVTLFSRSSDESQVDSEAAPRDV",glycan array binding signal (z-score),[1],-0.038
same,glycan array binding signal (z-score),[2],1.31
same,glycan array binding signal (z-score),[3],1.8
same,glycan array binding signal (z-score),[4],1.01
same,glycan array binding signal (z-score),[5],0.059
same,glycan array binding signal (z-score),[6],1.93
same,glycan array binding signal (z-score),[7],0.529
same,glycan array binding signal (z-score),[8],-0.008
same,glycan array binding signal (z-score),[9],2.04
same,glycan array binding signal (z-score),[10],0.002
same,glycan array binding signal (z-score),[11],-0.257
same,glycan array binding signal (z-score),[12],-0.693
same,glycan array binding signal (z-score),[13],-0.69
same,glycan array binding signal (z-score),[14],0.298
same,glycan array binding signal (z-score),[15],0.761
same,glycan array binding signal (z-score),GlcNAc(b1-3)GalNAc,-0.124
same,glycan array binding signal (z-score),GlcNAc(b1-3)Man,0.027
same,glycan array binding signal (z-score),[16],-0.066
same,glycan array binding signal (z-score),[17],-0.578
same,glycan array binding signal (z-score),[18],-0.421
same,glycan array binding signal (z-score),[19],-0.372
same,glycan array binding signal (z-score),GlcNAc(b1-4)GlcNAc,-0.007
same,glycan array binding signal (z-score),[20],-0.8
same,glycan array binding signal (z-score),[21],0.779
same,glycan array binding signal (z-score),[22],-0.6
same,glycan array binding signal (z-score),[23],1.65
same,glycan array binding signal (z-score),[24],-0.608
same,glycan array binding signal (z-score),GlcNAc(b1-6)GalNAc,-0.127
same,glycan array binding signal (z-score),[25],0.436
same,glycan array binding signal (z-score),Kdn(a2-3)Gal(b1-3)GalNAc,0.355
same,glycan array binding signal (z-score),Kdn(a2-3)Gal(b1-3)GlcNAc,-0.62
same,glycan array binding signal (z-score),Kdn(a2-3)Gal(b1-4)Glc,0.008
same,glycan array binding signal (z-score),Kdn(a2-3)Gal(b1-4)GlcNAc,-0.603
same,glycan array binding signal (z-score),[26],0.664
same,glycan array binding signal (z-score),Kdn(a2-6)Gal(b1-4)GlcNAc,-0.779
same,glycan array binding signal (z-score),[27],-0.37
same,glycan array binding signal (z-score),[28],1.4
same,glycan array binding signal (z-score),Man(a1-2)Man(a1-3)Man,-0.834

# Reformatted tab-delimited: entries from further up.
binder	measurement	setting	value
AT1G80310(18) (Arabidopsis thaliana), Q0WP36 (protein) METTTTPLLPGDRSRCGWLRRRLRLKNPLSSELSGAVGDLGTFIPIVLTLTLVSNLDLSTTLIFTGFYNIATGLLFDIPMPVQPMKSIAAVAVSESPHLTPSQIAAAGASTAATLLLLGATGAMSFLYNIIPLPVVRGVQLSQGLQFAFTAIKYVRFNYDTATLKPSSSPRIWLGLDGLILALAALLFIILSTGSGNDREAEDGDLAETSSNESQSRRRRLRLLSSIPSALIVFALGLVLCFIRDPSIFKDLKFGPSKFHILRISWDDWKIGFLRAAIPQIPLSVLNSVIAVCKLSNDLFDKELSATTVSISVGVMNLIGCWFGAMPVCHGAGGLAGQYRFGARSGLSVIFLGIGKLIVGLVFGNSFVRILSQFPIGILGVLLLFAGIELAMASKDMNSKEDSFIMLVCAAVSMTGSSAALGFGCGVVLYLLLKLRTLDCSSVTLFSRSSDESQVDSEAAPRDV	glycan array binding signal (z-score)	[2]	1.31
same	glycan array binding signal (z-score)	[3]	1.8

# Reference: the supplement of paper PMC8728848
